# Experimental data as given in the supplement of paper PMC10849652.
# By UniProt entry, the sequences of proteins in these tests, tags left out. Where a name states a change or a piece, a line headed by the entry shows the natural chain unless it says otherwise.
# UniProt Q9H254, whole entry, looked up: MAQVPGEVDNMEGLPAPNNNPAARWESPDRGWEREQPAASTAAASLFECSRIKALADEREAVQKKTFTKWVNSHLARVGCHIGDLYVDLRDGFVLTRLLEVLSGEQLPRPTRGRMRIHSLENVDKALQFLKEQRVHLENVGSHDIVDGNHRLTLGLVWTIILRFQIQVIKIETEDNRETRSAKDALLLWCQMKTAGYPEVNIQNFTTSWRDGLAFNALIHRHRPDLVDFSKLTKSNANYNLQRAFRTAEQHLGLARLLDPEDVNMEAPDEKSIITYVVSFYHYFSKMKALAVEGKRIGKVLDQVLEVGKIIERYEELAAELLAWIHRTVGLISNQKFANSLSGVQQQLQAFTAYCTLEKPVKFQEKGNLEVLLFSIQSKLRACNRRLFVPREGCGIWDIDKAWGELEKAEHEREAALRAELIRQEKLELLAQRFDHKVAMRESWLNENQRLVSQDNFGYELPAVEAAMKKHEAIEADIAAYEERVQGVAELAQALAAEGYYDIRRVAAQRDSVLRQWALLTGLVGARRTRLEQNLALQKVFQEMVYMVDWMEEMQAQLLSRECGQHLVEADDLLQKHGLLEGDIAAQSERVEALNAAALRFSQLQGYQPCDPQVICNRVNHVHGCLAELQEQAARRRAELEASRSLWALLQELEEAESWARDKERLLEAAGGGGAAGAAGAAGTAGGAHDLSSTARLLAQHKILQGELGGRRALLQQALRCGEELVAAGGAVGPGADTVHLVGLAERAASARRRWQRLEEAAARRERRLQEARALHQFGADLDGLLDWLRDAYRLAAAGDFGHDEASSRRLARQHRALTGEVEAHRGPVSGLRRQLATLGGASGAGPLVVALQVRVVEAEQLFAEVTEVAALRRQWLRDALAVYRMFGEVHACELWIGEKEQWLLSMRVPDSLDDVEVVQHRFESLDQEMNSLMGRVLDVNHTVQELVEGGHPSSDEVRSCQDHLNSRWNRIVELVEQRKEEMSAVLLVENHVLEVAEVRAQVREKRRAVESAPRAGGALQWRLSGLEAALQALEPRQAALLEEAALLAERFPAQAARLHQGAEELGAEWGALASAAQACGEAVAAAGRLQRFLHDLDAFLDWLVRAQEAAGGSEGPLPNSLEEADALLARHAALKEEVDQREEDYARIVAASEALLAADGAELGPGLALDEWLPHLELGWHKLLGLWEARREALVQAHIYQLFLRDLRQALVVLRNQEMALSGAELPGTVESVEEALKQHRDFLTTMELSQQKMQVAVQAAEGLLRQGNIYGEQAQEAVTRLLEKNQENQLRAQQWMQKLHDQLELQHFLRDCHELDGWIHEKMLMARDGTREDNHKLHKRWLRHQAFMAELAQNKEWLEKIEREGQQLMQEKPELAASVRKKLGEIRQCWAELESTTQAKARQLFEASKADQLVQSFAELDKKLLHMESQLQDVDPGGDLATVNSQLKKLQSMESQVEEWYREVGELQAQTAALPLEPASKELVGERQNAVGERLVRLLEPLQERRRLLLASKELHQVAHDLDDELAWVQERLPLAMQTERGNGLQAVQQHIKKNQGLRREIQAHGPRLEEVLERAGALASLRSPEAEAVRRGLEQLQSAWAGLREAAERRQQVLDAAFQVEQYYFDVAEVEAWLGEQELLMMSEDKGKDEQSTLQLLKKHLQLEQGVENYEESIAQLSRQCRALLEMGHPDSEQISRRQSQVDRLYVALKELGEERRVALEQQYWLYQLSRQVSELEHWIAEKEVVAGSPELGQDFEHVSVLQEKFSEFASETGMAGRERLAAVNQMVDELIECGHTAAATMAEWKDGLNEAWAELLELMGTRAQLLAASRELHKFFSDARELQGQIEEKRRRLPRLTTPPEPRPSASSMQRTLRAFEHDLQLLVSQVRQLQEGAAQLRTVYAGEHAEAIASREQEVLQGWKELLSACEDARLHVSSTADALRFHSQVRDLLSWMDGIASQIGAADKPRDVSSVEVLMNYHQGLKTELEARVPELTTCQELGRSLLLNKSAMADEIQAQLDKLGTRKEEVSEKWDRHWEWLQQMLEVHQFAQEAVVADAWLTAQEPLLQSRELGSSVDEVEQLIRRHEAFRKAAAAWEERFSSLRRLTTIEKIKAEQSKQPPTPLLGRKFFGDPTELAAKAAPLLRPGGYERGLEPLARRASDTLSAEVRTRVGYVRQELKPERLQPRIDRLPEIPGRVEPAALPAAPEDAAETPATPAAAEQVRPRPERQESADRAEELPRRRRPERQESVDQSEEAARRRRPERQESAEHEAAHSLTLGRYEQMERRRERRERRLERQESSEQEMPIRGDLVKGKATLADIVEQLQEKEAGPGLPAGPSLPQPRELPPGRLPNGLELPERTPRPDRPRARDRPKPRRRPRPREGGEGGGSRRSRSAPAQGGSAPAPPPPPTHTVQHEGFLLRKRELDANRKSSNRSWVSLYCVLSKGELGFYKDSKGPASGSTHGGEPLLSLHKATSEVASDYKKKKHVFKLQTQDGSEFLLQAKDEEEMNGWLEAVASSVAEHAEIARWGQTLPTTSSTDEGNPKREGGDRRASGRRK
# UniProt P11831: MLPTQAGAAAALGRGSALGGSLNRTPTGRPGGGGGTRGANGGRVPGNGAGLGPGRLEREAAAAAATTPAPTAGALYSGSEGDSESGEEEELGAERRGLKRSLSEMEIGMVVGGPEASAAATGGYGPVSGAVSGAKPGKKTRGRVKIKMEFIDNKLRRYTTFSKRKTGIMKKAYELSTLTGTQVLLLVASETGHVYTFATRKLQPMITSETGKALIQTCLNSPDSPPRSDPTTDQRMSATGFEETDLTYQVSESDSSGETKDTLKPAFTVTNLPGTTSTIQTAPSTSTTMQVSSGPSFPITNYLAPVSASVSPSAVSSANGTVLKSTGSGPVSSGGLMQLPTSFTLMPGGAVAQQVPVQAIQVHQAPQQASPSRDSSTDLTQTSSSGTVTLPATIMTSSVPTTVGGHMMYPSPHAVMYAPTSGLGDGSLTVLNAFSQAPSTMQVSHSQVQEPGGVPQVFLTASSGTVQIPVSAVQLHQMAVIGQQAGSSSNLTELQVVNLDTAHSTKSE
# UniProt O95793: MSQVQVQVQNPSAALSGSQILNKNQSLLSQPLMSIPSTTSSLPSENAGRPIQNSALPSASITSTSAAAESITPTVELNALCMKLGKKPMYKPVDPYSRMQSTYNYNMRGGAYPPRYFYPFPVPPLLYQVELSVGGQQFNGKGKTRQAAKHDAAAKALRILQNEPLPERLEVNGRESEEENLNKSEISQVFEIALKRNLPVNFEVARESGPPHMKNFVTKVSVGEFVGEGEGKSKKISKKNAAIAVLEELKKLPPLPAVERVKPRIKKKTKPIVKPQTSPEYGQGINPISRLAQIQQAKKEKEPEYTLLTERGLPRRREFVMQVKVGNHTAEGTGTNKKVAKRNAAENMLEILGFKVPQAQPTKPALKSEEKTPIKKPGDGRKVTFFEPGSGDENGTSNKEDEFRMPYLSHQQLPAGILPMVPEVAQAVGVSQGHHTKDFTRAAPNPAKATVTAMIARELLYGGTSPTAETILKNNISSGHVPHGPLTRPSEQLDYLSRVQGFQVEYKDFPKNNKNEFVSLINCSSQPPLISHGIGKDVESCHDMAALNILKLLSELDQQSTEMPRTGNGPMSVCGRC
# UniProt P19623: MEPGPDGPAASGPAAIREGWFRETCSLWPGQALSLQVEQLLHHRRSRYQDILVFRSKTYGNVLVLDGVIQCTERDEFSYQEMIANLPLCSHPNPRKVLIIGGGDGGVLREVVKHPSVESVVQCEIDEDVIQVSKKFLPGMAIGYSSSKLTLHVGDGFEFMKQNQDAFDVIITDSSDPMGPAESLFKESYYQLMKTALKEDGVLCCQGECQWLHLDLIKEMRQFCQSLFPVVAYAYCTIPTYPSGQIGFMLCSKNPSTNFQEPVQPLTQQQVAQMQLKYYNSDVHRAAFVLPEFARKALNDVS
# UniProt P11277, whole entry, looked up: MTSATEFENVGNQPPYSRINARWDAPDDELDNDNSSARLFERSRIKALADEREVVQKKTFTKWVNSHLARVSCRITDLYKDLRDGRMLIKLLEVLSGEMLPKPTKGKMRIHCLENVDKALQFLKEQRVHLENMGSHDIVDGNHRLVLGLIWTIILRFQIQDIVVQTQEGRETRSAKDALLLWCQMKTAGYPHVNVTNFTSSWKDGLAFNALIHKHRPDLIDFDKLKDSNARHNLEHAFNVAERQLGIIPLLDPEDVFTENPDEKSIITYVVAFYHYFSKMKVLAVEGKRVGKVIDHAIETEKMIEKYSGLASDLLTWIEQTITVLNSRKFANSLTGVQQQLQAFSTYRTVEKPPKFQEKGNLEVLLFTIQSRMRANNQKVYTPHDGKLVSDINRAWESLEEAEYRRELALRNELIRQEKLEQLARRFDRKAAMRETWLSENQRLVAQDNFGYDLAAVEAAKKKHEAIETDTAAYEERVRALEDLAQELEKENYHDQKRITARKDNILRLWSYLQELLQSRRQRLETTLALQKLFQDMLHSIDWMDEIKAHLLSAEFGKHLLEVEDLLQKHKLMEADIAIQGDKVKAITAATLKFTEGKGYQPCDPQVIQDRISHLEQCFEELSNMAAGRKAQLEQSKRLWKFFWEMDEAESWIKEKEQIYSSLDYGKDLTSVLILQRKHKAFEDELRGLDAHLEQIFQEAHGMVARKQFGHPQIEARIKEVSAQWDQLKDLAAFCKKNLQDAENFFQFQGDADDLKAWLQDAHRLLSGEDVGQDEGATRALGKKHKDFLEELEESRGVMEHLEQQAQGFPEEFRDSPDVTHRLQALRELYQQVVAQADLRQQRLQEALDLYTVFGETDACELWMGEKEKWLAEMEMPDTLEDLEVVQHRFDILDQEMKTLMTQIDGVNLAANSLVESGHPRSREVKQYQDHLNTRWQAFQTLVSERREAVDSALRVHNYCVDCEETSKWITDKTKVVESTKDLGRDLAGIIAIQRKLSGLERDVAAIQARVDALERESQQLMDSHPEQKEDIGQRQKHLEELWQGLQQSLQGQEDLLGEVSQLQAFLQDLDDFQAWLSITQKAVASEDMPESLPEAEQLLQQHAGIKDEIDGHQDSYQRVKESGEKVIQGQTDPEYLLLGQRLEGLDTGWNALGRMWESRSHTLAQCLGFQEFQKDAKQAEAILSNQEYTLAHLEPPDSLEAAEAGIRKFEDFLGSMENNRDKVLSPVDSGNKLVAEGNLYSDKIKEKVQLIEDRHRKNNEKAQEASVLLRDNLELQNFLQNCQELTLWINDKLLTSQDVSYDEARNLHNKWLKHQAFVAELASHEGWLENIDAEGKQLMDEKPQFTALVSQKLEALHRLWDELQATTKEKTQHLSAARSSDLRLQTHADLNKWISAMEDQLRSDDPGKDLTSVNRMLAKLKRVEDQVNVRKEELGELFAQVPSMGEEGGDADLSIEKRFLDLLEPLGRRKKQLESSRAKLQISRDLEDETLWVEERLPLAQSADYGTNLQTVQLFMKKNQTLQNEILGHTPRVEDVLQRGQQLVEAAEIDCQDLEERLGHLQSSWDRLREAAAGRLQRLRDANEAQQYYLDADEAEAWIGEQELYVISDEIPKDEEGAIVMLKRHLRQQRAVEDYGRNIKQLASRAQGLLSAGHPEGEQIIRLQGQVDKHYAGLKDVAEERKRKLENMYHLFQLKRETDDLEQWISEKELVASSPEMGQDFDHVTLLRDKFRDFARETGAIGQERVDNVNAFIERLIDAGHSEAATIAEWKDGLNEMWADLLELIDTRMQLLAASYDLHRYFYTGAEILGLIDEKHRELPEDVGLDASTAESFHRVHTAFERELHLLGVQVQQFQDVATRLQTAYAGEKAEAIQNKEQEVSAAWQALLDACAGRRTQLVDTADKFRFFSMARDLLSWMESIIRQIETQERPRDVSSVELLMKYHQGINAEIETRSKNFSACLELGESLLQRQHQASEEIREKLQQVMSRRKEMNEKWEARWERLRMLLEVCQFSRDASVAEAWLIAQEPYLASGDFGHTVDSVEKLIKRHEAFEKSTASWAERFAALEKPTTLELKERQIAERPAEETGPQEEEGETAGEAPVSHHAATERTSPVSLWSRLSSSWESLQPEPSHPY
# UniProt Q15005: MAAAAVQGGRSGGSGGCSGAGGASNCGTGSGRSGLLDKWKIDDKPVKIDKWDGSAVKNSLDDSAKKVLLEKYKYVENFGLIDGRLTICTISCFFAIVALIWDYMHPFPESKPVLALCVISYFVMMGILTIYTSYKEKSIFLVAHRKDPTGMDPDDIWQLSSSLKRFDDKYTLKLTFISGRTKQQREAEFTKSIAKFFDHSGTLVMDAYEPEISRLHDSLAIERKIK
# UniProt Q13242, whole entry, looked up: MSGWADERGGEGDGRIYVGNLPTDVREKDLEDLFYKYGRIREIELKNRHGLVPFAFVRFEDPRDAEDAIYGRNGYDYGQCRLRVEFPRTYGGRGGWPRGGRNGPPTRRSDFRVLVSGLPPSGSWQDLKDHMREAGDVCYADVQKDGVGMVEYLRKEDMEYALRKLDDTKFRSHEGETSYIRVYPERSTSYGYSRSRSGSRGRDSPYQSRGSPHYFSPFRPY
# Some of the results follow.
# Legend:
# Experiment in all cases: log2 fold change, soluble protein after heating vs DMSO (PISA); higher = thermal stabilisation; K562 lysate, 10 uM; active = over 0.2 and 3.5 SD of the protein, either way, in both replicates (recomputed)
# alvocidib = compound: CN1CC[C@H](c2c(O)cc(O)c3c(=O)cc(-c4ccccc4Cl)oc23)[C@H](O)C1 [alvocidib]
# Method in brief: (§1)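 Log-two fold change in thermal stability relative to solvent controls is reported from duplicates. For each sample, crude K562 extract from dounce-homogenised pellets in PBS pH 7.4 with 1 mM MgCl2, at 1 mg/mL protein, was treated with 10 μM compound for 30 min. Aliquots heated for 3 min across 48°C-58°C were pooled, brought to 0.5% NP-40 at 4°C and cleared at 21,000xg for 90 min. The supernatant was quantified by TMTpro 16plex LC-MS/MS with channel sums equalised.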
# Tubastatin A = compound: CN1CCc2c(c3ccccc3n2Cc2ccc(C(=O)NO)cc2)C1 [Tubastatin A]
# Method in brief: as §1
# [1] = compound: CNC(=O)C1=CC=CC=C1NC2=NC(=NC=C2Cl)NC3=C(C=C(C=C3)N4CCOCC4)OC
# Method in brief: as §1
# defactinib = compound: CNC(=O)c1ccc(Nc2ncc(C(F)(F)F)c(NCc3nccnc3N(C)S(C)(=O)=O)n2)cc1 [defactinib]
# Method in brief: as §1
# [2] = compound: CNc1nc(-c2ccc3c(N)n[nH]c3c2)cc(N2C[C@@H](C(=O)NC3CCCCC3)CC[C@H]2C)n1
# Method in brief: as §1
# encorafenib = compound: COC(=O)N[C@@H](C)CNc1nccc(-c2cn(C(C)C)nc2-c2cc(Cl)cc(NS(C)(=O)=O)c2F)n1 [encorafenib]
# Method in brief: as §1
# [3] = compound: COC(=O)[C@H](CCSC)NC(=O)C1=C(C=C(C=C1)NC[C@H](CS)N)C2=CC=CC=C2
# Method in brief: as §1
# alisertib = compound: COc1cc(Nc2ncc3c(n2)-c2ccc(Cl)cc2C(c2c(F)cccc2OC)=NC3)ccc1C(=O)O [alisertib]
# Method in brief: as §1
# [4] = compound: COc1cc2nc(-c3cc(F)ccc3O)nc(N[C@@H]3CNC[C@H]3C(C)(C)O)c2cc1OC
# Method in brief: as §1
# gefitinib = compound: COc1cc2ncnc(Nc3ccc(F)c(Cl)c3)c2cc1OCCCN1CCOCC1 [gefitinib]
# Method in brief: as §1
# lapatinib = compound: CS(=O)(=O)CCNCc1ccc(-c2ccc3ncnc(Nc4ccc(OCc5cccc(F)c5)c(Cl)c4)c3c2)o1 [lapatinib]
# Method in brief: as §1
# pictilisib = compound: CS(=O)(=O)N1CCN(Cc2cc3nc(-c4cccc5[nH]ncc45)nc(N4CCOCC4)c3s2)CC1 [pictilisib]
# Method in brief: as §1
# crizotinib = compound: C[C@@H](Oc1cc(-c2cnn(C3CCNCC3)c2)cnc1N)c1c(Cl)ccc(F)c1Cl [crizotinib]
# Method in brief: as §1
# [5] = compound: C[C@H](C1=CC=C(C=C1)C(=O)NC2=C3C=CNC3=NC=C2)N
# Method in brief: as §1
# duvelisib = compound: C[C@H](Nc1ncnc2nc[nH]c12)c1cc2cccc(Cl)c2c(=O)n1-c1ccccc1 [duvelisib]
# Method in brief: as §1
# gandotinib = compound: Cc1cc(Nc2cc(CN3CCOCC3)c3nc(C)c(Cc4ccc(Cl)cc4F)n3n2)n[nH]1 [gandotinib]
# Method in brief: as §1
# tozasertib = compound: Cc1cc(Nc2cc(N3CCN(C)CC3)nc(Sc3ccc(NC(=O)C4CC4)cc3)n2)n[nH]1 [tozasertib]
# Method in brief: as §1
# doramapimod = compound: Cc1ccc(-n2nc(C(C)(C)C)cc2NC(=O)Nc2ccc(OCCN3CCOCC3)c3ccccc23)cc1 [doramapimod]
# Method in brief: as §1
# bafetinib = compound: Cc1ccc(NC(=O)c2ccc(CN3CC[C@H](N(C)C)C3)c(C(F)(F)F)c2)cc1Nc1nccc(-c2cncnc2)n1 [bafetinib]
# Method in brief: as §1
# [6] = compound: Cc1cccc(CC(=O)N2CCc3c2ccc(-c2cn(C)c4ncnc(N)c24)c3F)n1
# Method in brief: as §1
Target,log2 fold change (alvocidib),log2 fold change (Tubastatin A),log2 fold change [1],log2 fold change (defactinib),log2 fold change [2],log2 fold change (encorafenib),log2 fold change [3],log2 fold change (alisertib),log2 fold change [4],log2 fold change (gefitinib),log2 fold change (lapatinib),log2 fold change (pictilisib),log2 fold change (crizotinib),log2 fold change [5],log2 fold change (duvelisib),log2 fold change (gandotinib),log2 fold change (tozasertib),log2 fold change (doramapimod),log2 fold change (bafetinib),log2 fold change [6]
ST7 (UniProt Q9NRC1),inactive: 0.026,inactive: -0.079,inactive: -0.018,inactive: 0.022,inactive: 0.049,inactive: 0.098,inactive: -0.095,inactive: 0.078,inactive: -0.08,inactive: -0.098,inactive: -0.033,inactive: -0.012,inactive: -0.026,inactive: -0.051,inactive: -0.054,inactive: 0,inactive: 0.029,inactive: -0.024,inactive: 0.01,inactive: 0.191
STAMBP (UniProt O95630),inactive: 0.022,inactive: 0.004,inactive: 0.004,inactive: 0.001,inactive: 0.002,inactive: -0.004,inactive: 0.02,inactive: -0.017,inactive: -0.015,inactive: 0.001,inactive: 0.011,inactive: 0.013,inactive: 0.064,inactive: -0.035,inactive: -0.007,inactive: -0.047,inactive: -0.005,inactive: -0.013,inactive: 0.022,inactive: -0.026
SPTBN4 (UniProt Q9H254),inactive: -0.009,inactive: 0.131,inactive: 0.038,inactive: -0.104,inactive: 0.074,inactive: 0.021,inactive: -0.105,inactive: 0.077,inactive: -0.067,inactive: -0.017,inactive: 0.016,inactive: 0.125,inactive: 0.047,inactive: -0.095,inactive: 0.087,inactive: 0.123,inactive: -0.025,inactive: -0.025,inactive: 0.04,inactive: 0.111
SPNS1 (UniProt Q9H2V7),inactive: -0.118,inactive: 0.034,inactive: 0.06,inactive: 0.095,inactive: -0.03,inactive: 0.019,inactive: -0.031,inactive: 0.047,inactive: 0.019,inactive: -0.015,inactive: 0.025,inactive: -0.038,inactive: -0.004,inactive: -0.042,inactive: 0.04,inactive: 0.032,inactive: -0.073,inactive: 0.014,inactive: -0.054,inactive: 0.052
SRA1 (UniProt Q9HD15),inactive: -0.02,inactive: 0.059,inactive: 0.001,inactive: -0.002,inactive: 0.005,inactive: -0.002,inactive: -0.02,inactive: 0.005,inactive: -0.002,inactive: -0.001,inactive: -0.008,inactive: -0.023,inactive: 0.023,inactive: -0.088,inactive: 0.016,inactive: 0.081,inactive: -0.008,inactive: -0.025,inactive: 0.013,inactive: 0.027
SRF (UniProt P11831),inactive: 0.077,inactive: 0.038,inactive: 0.036,inactive: 0.099,inactive: -0.02,inactive: 0.159,inactive: 0.096,inactive: -0.069,inactive: -0.036,inactive: -0.089,inactive: 0.016,inactive: -0.024,inactive: 0.095,inactive: 0.129,inactive: 0.042,inactive: 0.009,inactive: -0.137,inactive: -0.024,inactive: 0.039,inactive: -0.198
STAU1 (UniProt O95793),inactive: 0.062,inactive: -0.06,inactive: 0.051,inactive: 0.027,inactive: -0.04,inactive: 0.078,inactive: -0.009,inactive: 0.072,inactive: -0.007,inactive: 0.012,inactive: -0.018,inactive: 0.03,inactive: 0.005,active: 0.27,inactive: 0.019,inactive: -0.086,inactive: 0.014,inactive: 0.056,inactive: -0.089,inactive: -0.062
SRFBP1 (UniProt Q8NEF9),inactive: -0.071,inactive: 0.03,inactive: 0.034,inactive: 0.071,inactive: 0.143,inactive: 0.035,inactive: 0.023,inactive: 0.006,inactive: 0.013,inactive: 0.09,inactive: 0.007,inactive: -0.023,inactive: -0.077,inactive: -0.127,inactive: -0.152,inactive: 0.128,inactive: -0.002,inactive: -0.05,inactive: -0.038,inactive: 0.082
STIL isoform 2 (UniProt Q15468),inactive: 0.021,inactive: -0.164,inactive: 0.011,inactive: 0.051,inactive: 0.001,inactive: 0.083,inactive: -0.012,inactive: 0.09,inactive: 0.086,inactive: 0.033,inactive: 0.01,inactive: -0.018,inactive: 0.013,inactive: -0.045,inactive: -0.011,inactive: 0.035,inactive: 0.12,inactive: 0.018,inactive: -0.105,inactive: 0.031
SRBD1 (UniProt Q8N5C6),inactive: 0.063,inactive: -0.081,inactive: 0.081,inactive: 0.126,inactive: -0.031,inactive: 0.103,inactive: -0.007,inactive: -0.019,inactive: -0.069,inactive: -0.06,inactive: 0.019,inactive: -0.022,inactive: -0.052,inactive: -0.252,inactive: -0.006,inactive: 0.118,inactive: -0.05,inactive: 0.018,inactive: 0.003,inactive: 0.13
SRM (UniProt P19623),inactive: 0.008,inactive: -0.014,inactive: -0.014,inactive: -0.03,inactive: -0.03,inactive: -0.011,inactive: 0.083,inactive: -0.03,inactive: 0.016,inactive: 0.011,inactive: -0.015,inactive: -0.013,inactive: -0.048,inactive: -0.032,active: 0.716,inactive: -0.036,inactive: 0.01,inactive: -0.017,inactive: -0.009,inactive: -0.033
SPTB isoform 2 (UniProt P11277),inactive: 0.001,inactive: -0.086,inactive: -0.033,inactive: -0.015,inactive: -0.015,inactive: -0.01,inactive: 0.057,inactive: -0.002,inactive: 0.016,inactive: 0.005,inactive: 0.011,inactive: -0.036,inactive: -0.065,inactive: -0.054,inactive: -0.027,inactive: -0.047,inactive: 0.009,inactive: 0.005,inactive: -0.061,inactive: 0.083
SPCS2 (UniProt Q15005),inactive: 0.048,inactive: -0.009,inactive: 0.012,inactive: 0.038,inactive: -0.075,inactive: -0.015,inactive: -0.006,inactive: -0.013,inactive: 0.017,inactive: 0.03,inactive: -0.024,inactive: -0.003,inactive: 0.002,inactive: 0.106,inactive: -0.025,inactive: -0.182,inactive: 0.055,inactive: -0.025,inactive: 0.037,inactive: -0.119
SRSF9 (UniProt Q13242),inactive: -0.021,inactive: -0.165,inactive: 0.002,inactive: -0.054,inactive: -0.044,inactive: 0,inactive: -0.084,inactive: -0.013,inactive: -0.017,inactive: -0.022,inactive: 0.014,inactive: 0.046,inactive: 0.006,inactive: -0.019,inactive: 0.011,inactive: -0.003,inactive: 0.019,inactive: 0.085,inactive: -0.028,inactive: 0.053
SPPL2B (UniProt Q8TCT7),inactive: -0.041,inactive: -0.05,inactive: 0.067,inactive: -0.006,inactive: -0.053,inactive: 0.016,inactive: -0.061,inactive: 0.019,inactive: -0.008,inactive: -0.028,inactive: -0.068,inactive: -0.113,inactive: 0.028,inactive: -0.043,inactive: 0.081,inactive: 0.072,inactive: -0.01,inactive: -0.012,inactive: -0.045,inactive: -0.017
